For two molecules, binding results are on record in article PMC7042713.

For assay [1], the target named is AtSOK4 DIX domain (Arabidopsis thaliana SOSEKI4), wild type (Arabidopsis thaliana) (UniProt Q8GY65). As to the kind of experiment: SEC-MALS; purified recombinant DIX domains at 2 mg/mL unless stated otherwise; PBS with 1 mM DTT; Superdex200 10/300 GL; 100 ul sample, 0.5 mL/min; both purified. In general terms: SEC sorts molecules by how far they enter the pores of the column.

Assay [2] addresses AtSOK4 DIX domain D85A (crystallised) (Arabidopsis thaliana) (UniProt Q8GY65). Description: crystal structure; AtSOK4 DIX D85A, tag removed, 9 mg/mL; crystals in 0.69 M ammonium sulfate, 200 mM NaCl, 100 mM HEPES pH 7.0; 18°C; selenomethionine phasing; both purified.

Substitutions are numbered along the chain they refer to. Names and notes keep the numbering of the source. No constants are given. Whether binding was seen depends on the method and setting. Some results given as binding are weak or reduced against the parent protein; the word gives no strength.

B1: AtSOK4 DIX domain (Arabidopsis thaliana SOSEKI4), wild type (domain or fragment, UniProt Q8GY65 15-109)
chain: SRERIVPVVYYLSRNGRLDHPHFIEVPLSSHNGLYLKDVINRLNDLRGNGMACLYSWSSKRTYKNGFVWYDLSDEDFIFPVHGQEYVLKGSQILD
Take B1: the binding result in assay [1] is on record as “binds”.

B2: AtSOK4 DIX domain D85A (crystallised) (domain or fragment, UniProt Q8GY65 15-109)
chain: B1 chain with D71A
modifications: selenomethionine labelling (to determine phasing)
Turning to B2, in assay [2], the binding entry is “binds”.
